Data as given in PubChem BioAssay AID1508588 (Peter MacCallum Cancer Centre, 2020)
Here is a random part of about 18,000 reagents. In the full data, 790 (4.4%) were called active. 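Calls rest on a combination of fold-change classes in drug and vehicle arms, not all shown here.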 A reagent listed more than once was tested more than once; the source does not tell the runs apart. No sequences are given here.

- Purpose: 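Genome-wide search for knock-downs that heighten vemurafenib action in melanoma cells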 (primary screen)
- Cell system: human WM266.4 melanoma cells (BRAF V600 mutant)
- Knock-down reagent: siRNA pool against human genes, 40 nM
- Timing: 96 h from transfection to read-out
- Challenge: vemurafenib 300 nM (about IC25), added 48 h after transfection, for 48 h; comparison arm got DMSO vehicle only
- Measurement: 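Ratios to non-targeting siRNA for cell gain, counted as DAPI nuclei after minus before drug and averaged over two replicates, and for absorbance-read medium lactate per cell; both binned into fold-change classes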
- Direction: cell gain with vemurafenib: higher = more cell gain than with non-targeting siRNA; lactate per cell with vemurafenib: higher = more lactate made per cell
- Call rule: 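Enhancement is called by pairing each knock-down's vehicle-arm and drug-arm fold-change classes for viability or glycolysis; which class combinations qualify is not given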
- Calls: active = enhances vemurafenib effect; inactive = no enhancement seen

gene knocked down | cell gain with vemurafenib | lactate per cell with vemurafenib | outcome
BOLL (boule RNA binding protein) | 0.47 | 0.83 | inactive
LIPC (lipase C, hepatic type) | 0.68 | 0.79 | inactive
PLA2G7 (phospholipase A2 group VII) | 0.45 | 1.77 | inactive
BLVRB (biliverdin reductase B) | 0.65 | 0.98 | inactive
ADRB2 (adrenoceptor beta 2) | 0.46 | 2.59 | inactive
PXMP2 (peroxisomal membrane protein 2) | 0.46 | 1.12 | inactive
OR10H3 (olfactory receptor family 10 subfamily H member 3) | 0.88 | 0.56 | inactive
CAMK2A (calcium/calmodulin dependent protein kinase II alpha) | 0.79 | 0.76 | inactive
AMY1A (amylase alpha 1A) | 0.64 | 0.56 | active
RAP1GDS1 (Rap1 GTPase-GDP dissociation stimulator 1) | 0.67 | 1.19 | inactive
S100A1 (S100 calcium binding protein A1) | 0.14 | 2.02 | inactive
ITPA (inosine triphosphatase) | 0.41 | 1.23 | inactive
AP1G1 (adaptor related protein complex 1 subunit gamma 1) | 0.64 | 0.98 | inactive
EDARADD (EDAR associated via death domain) | 0.44 | 0.98 | inactive
NTN4 (netrin 4) | 1.27 | 0.54 | inactive
SERPINH1 (serpin family H member 1) | 0.88 | 0.81 | inactive
FBXL21P (F-box and leucine rich repeat protein 21, pseudogene) | 0.25 | 2.34 | inactive
ENO2 (enolase 2) | 0.74 | 1.24 | inactive
JMJD7-PLA2G4B (JMJD7-PLA2G4B readthrough) | 0.49 | 0.77 | inactive
CEBPG (CCAAT enhancer binding protein gamma) | 0.6 | 0.92 | inactive
ITPKB (inositol-trisphosphate 3-kinase B) | 0.76 | 0.84 | inactive
TBP (TATA-box binding protein) | 0.48 | 0.9 | inactive
CT45A5 (cancer/testis antigen family 45 member A5) | 0.3 | 1.21 | inactive
UGT2A1 (UDP glucuronosyltransferase family 2 member A1 complex locus) | 1.04 | 1.19 | inactive
XRN2 (5'-3' exoribonuclease 2) | 0.73 | 0.65 | inactive
ING3 (inhibitor of growth family member 3) | 0.22 | 0.28 | active
SLC37A3 | 0.25 | 1.02 | inactive
INO80 (INO80 complex ATPase subunit) | 0.75 | 0.42 | inactive
UGT1A7 (UDP glucuronosyltransferase family 1 member A7) | 0.02 | 0.94 | inactive
TSPAN3 (tetraspanin 3) | 0.62 | 0.64 | inactive
ESD (esterase D) | 1.15 | 1 | inactive
OR5AN1 (olfactory receptor family 5 subfamily AN member 1) | 0.24 | 0.53 | inactive
P3H3 (prolyl 3-hydroxylase 3) | 0.35 | 1.18 | inactive
NES (nestin) | 0.17 | 0.42 | active
CIAO2A (cytosolic iron-sulfur assembly component 2A) | 0.84 | 1.14 | inactive
BBOF1 (basal body orientation factor 1) | 0.95 | 1.25 | inactive
PDE4C (phosphodiesterase 4C) | 1 | 0.97 | inactive
MBIP (MAP3K12 binding inhibitory protein 1) | -0.12 | 0.37 | inactive
F2RL1 (F2R like trypsin receptor 1) | 0.72 | 1.06 | inactive
AMPD2 (adenosine monophosphate deaminase 2) | 0.36 | 1.7 | inactive
NUP188 (nucleoporin 188) | 0.45 | 0.84 | inactive
SPEF2 (sperm flagellar and cilia associated 2) | 0.85 | 1.02 | inactive
PABPC1 (poly(A) binding protein cytoplasmic 1) | 1.13 | 0.73 | inactive
ZNF780A (zinc finger protein 780A) | 0.85 | 1.1 | inactive
ZBTB48 (zinc finger and BTB domain containing 48) | 0.54 | 0.85 | inactive
KCNE2 | 0.64 | 1.12 | inactive
GNAI2 (G protein subunit alpha i2) | 1.04 | 1.06 | inactive
HPGDS (hematopoietic prostaglandin D synthase) | 0.33 | 1.48 | inactive
CNNM1 | 0.73 | 1.09 | inactive
SMPD2 (sphingomyelin phosphodiesterase 2) | 0.68 | 0.6 | inactive
NATD1 (N-acetyltransferase domain containing 1) | 1.4 | 0.98 | inactive
ST6GAL1 (ST6 beta-galactoside alpha-2,6-sialyltransferase 1) | 0.63 | 0.3 | inactive
ATF1 (activating transcription factor 1) | 0.7 | 0.9 | inactive
CHAC1 (ChaC glutathione specific gamma-glutamylcyclotransferase 1) | 0.59 | 0.57 | inactive
PLP1 (proteolipid protein 1) | 0.89 | 0.56 | inactive
KCNH8 (potassium voltage-gated channel subfamily H member 8) | 0.62 | 0.06 | active
KCNH8 (potassium voltage-gated channel subfamily H member 8) | 0.79 | 0.32 | active
MRPS9 (mitochondrial ribosomal protein S9) | 0.78 | 1.17 | inactive
PFDN4 (prefoldin subunit 4) | 0.96 | 0.59 | inactive
TNFRSF13C (TNF receptor superfamily member 13C) | 0.81 | 0.7 | inactive
GUCA1C (guanylate cyclase activator 1C) | 0.35 | 0.45 | active
DPT (dermatopontin) | 0.13 | 1.66 | inactive
GARIN1B (golgi associated RAB2 interactor 1B) | 0.99 | 1.25 | inactive
TSTD2 (thiosulfate sulfurtransferase like domain containing 2) | 0.7 | 1.5 | inactive
RNF43 (ring finger protein 43) | 1.05 | 0.78 | inactive
PLOD2 (procollagen-lysine,2-oxoglutarate 5-dioxygenase 2) | 0.65 | 0.8 | inactive
RBM47 (RNA binding motif protein 47) | 0.3 | 0.3 | inactive
MED27 (mediator complex subunit 27) | 0.98 | 1.04 | inactive
RECQL (RecQ like helicase) | 0.57 | 1.18 | inactive
CTSE (cathepsin E) | 0.61 | 0.87 | inactive
SKP2 (S-phase kinase associated protein 2) | 0.59 | 1.11 | inactive
NCOA6 (nuclear receptor coactivator 6) | 0.62 | 1.7 | inactive
TBX10 (T-box transcription factor 10) | 0.78 | 0.91 | inactive
C5 (complement C5) | 0.8 | 0.98 | inactive
WFDC10A (WAP four-disulfide core domain 10A) | 0.55 | 0.9 | inactive
ING4 (inhibitor of growth family member 4) | 0.51 | 0.47 | inactive
PPM1N (protein phosphatase, Mg2+/Mn2+ dependent 1N (putative)) | 1.3 | 0.72 | inactive
EPB42 (erythrocyte membrane protein band 4.2) | 0.89 | 0.97 | inactive
MED22 (mediator complex subunit 22) | 0.73 | 1.06 | inactive
SENP2 (SUMO specific peptidase 2) | -0.05 | 1.31 | inactive
CLVS2 (clavesin 2) | 0.61 | 0.34 | inactive
IL6 (interleukin 6) | 0.84 | 0.59 | inactive
TMEM130 (transmembrane protein 130) | 0.84 | 0.61 | inactive
LHFPL1 (LHFPL tetraspan subfamily member 1) | 1.16 | 0.7 | inactive
S100A9 (S100 calcium binding protein A9) | 1.46 | 0.55 | inactive
CYTH3 (cytohesin 3) | 0.43 | 1.8 | inactive
ELOC (elongin C) | 0.44 | 1.52 | inactive
ZNF285 (zinc finger protein 285) | 0.85 | 0.6 | inactive
CHRM2 (cholinergic receptor muscarinic 2) | 0.98 | 0.91 | inactive
RPL8 (ribosomal protein L8) | -0.07 | 2.33 | inactive
MMEL1 (membrane metalloendopeptidase like 1) | 0.22 | 1.38 | inactive
CCDC51 (coiled-coil domain containing 51) | 0.76 | 1.33 | inactive
CAMKMT (calmodulin-lysine N-methyltransferase) | 0.59 | 0.62 | inactive
H2AC8 (H2A clustered histone 8) | 0.94 | 0.23 | active
POLR2L (RNA polymerase II, I and III subunit L) | 0.4 | 1.17 | inactive
IGF1 (insulin like growth factor 1) | 0.54 | 1.58 | inactive
MMP12 (matrix metallopeptidase 12) | 0.42 | 1.55 | inactive
KRT85 (keratin 85) | 0.65 | 1.21 | inactive
TMEM218 (transmembrane protein 218) | 0.54 | 1.15 | inactive
MANSC1 (MANSC domain containing 1) | 0.16 | 1.68 | inactive
EPC1 (enhancer of polycomb 1) | 0.52 | 0.98 | inactive
SPINT2 (serine peptidase inhibitor, Kunitz type 2) | 1.74 | 0.82 | inactive
SPNS3 | 0.44 | 0.97 | inactive
C1orf216 (chromosome 1 open reading frame 216) | 1.41 | 0.57 | inactive
CLEC10A (C-type lectin domain containing 10A) | 0.4 | 0.78 | inactive
KIF3A (kinesin family member 3A) | 0.55 | 0.82 | inactive
MYH11 (myosin heavy chain 11) | 0.9 | 0.3 | inactive

Hits, among the entries above:
gene knocked down | cell gain with vemurafenib | lactate per cell with vemurafenib | outcome
AMY1A (amylase alpha 1A) | 0.64 | 0.56 | active
ING3 (inhibitor of growth family member 3) | 0.22 | 0.28 | active
NES (nestin) | 0.17 | 0.42 | active
KCNH8 (potassium voltage-gated channel subfamily H member 8) | 0.62 | 0.06 | active
KCNH8 (potassium voltage-gated channel subfamily H member 8) | 0.79 | 0.32 | active
GUCA1C (guanylate cyclase activator 1C) | 0.35 | 0.45 | active
H2AC8 (H2A clustered histone 8) | 0.94 | 0.23 | active
